This note sets out measurements from publication PMC3382597.

The assay concerns the target peroxiredoxin 3 (PRX3), endogenous in HM malignant mesothelioma cells (human (endogenous in HM cells)) (UniProt P30048). As to the kind of experiment: non-reducing denaturing SDS-PAGE with immunoblot; HM cells treated with increasing thiostrepton (TS) for 18 hr; extracts prepared without reducing agents, 20 µg protein/lane, denaturing but not reducing gel that preserves disulfide bonds; PRX3 monomers against disulfide-bonded dimers by immunoblot. (A western blot detects proteins with antibodies after separation by electrophoresis.)

Results are given in words; binding and its absence hold for the method and conditions named. Some binding calls cover weakened binding; strength is not graded here.

B1: peroxiredoxin 3 (PRX3), endogenous in HM malignant mesothelioma cells (protein, UniProt P30048 62-256)
chain: APAVTQHAPYFKGTAVVNGEFKDLSLDDFKGKYLVLFFYPLDFTFVCPTEIVAFSDKANEFHDVNCEVVAVSVDSHFSHLAWINTPRKNGGLGHMNIALLSDLTKQISRDYGVLLEGSGLALRGLFIIDPNGVIKHLSVNDLPVGRSVEETLRLVKAFQYVETHGEVCPANWTPDSPTIKPSPAASKEYFQKVNQ
As for B1, the binding entry is “binds”.
